The source of these data is article PMC12517348.

Amino acid sequences for entries named in this document (tags omitted).
UniProt P10085: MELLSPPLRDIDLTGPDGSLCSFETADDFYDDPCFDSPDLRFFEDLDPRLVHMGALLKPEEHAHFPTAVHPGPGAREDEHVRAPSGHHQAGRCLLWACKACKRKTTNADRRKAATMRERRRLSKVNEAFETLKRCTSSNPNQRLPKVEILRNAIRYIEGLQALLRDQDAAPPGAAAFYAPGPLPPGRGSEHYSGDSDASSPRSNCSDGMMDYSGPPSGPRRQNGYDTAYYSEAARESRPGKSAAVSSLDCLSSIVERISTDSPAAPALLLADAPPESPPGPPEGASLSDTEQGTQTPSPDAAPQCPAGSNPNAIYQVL

No constants are given. Whether binding was seen depends on the method and setting. In cells and extracts the contact can be indirect. Some results given as binding are weak or reduced against the parent protein; the word gives no strength. Sequences can lack the tags named with a protein.

For assay [1], the target named is T1, MYOG, Myc-tagged (MyoG-myc) (mouse) (UniProt P12979).
T1 sequence: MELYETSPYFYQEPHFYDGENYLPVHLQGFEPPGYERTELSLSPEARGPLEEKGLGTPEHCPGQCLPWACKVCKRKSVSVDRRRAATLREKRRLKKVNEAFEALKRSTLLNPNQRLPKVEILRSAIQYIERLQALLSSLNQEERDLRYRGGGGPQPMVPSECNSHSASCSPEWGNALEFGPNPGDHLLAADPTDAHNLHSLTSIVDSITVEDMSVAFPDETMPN
Nature of the assay: co-IP; HEK293T cells overexpressing MyoD-myc, MyoG-myc and Rxrg-flag; 1 mM DSP cross-linking for 30 min before lysis; NP40 lysis buffer (150 mM NaCl, 50 mM Tris pH 7.5, 1% NP40); 1 mg protein precipitated with anti-myc antibody on protein A agarose, 4°C, 16 h; blots with anti-myc and anti-flag-HRP.

The target in assay [2] is MYOD1, Myc-tagged (MyoD-myc) (UniProt P10085). Described as above.

B1: RXRG, flag-tagged (Rxrg-flag) (protein, UniProt P28705 1-463)
chain: MYGNYSHFMKFPTGFGGSPGHTGSTSMSPSVALPTGKPMDSHPSYTDTPVSAPRTLSAVGTPLNALGSPYRVITSAMGPPSGALAAPPGINLVAPPSSQLNVVNSVSSSEDIKPLPGLPGIGNMNYPSTSPGSLVKHICAICGDRSSGKHYGVYSCEGCKGFFKRTIRKDLIYTCRDNKDCLIDKRQRNRCQYCRYQKCLVMGMKREAVQEERQRSRERAESEAECASSSHEDMPVERILEAELAVEPKTESYGDMNVENSTNDPVTNICHAADKQLFTLVEWAKRIPHFSDLTLEDQVILLRAGWNELLIASFSHRSVSVQDGILLATGLHVHRSSAHSAGVGSIFDRVLTELVSKMKDMQMDKSELGCLRAIVLFNPDAKGLSNPSEVETLREKVYATLEAYTKQKYPEQPGRFAKLLLRLPALRSIGLKCLEHLFFFKLIGDTPIDSFLMEMLETPLQIT
Consider B1, for which the binding result in assay [1] and in assay [2] was “binds” throughout.
